Construct, isoform or probe ends are uncertain for at least one entry. For part of these data: Negatives hold for the conditions tested. For part of these data: Protein sequences can lack the tags named with them.
Legend:
Experiment in all cases: EMSA
[1] = biological target: T1, RpL22/H5 polypeptide (Drosophila melanogaster) (UniProt P50887); conditions: 1.2 ug protein, 2 ng DNA; EMSA with 2 ng labeled TERM3; pH and temperature not given (as previously described, ref 31); recombinant protein; protein details: pET200 tag (His6); label: radiolabeled
T1 sequence (looked up, limits assumed): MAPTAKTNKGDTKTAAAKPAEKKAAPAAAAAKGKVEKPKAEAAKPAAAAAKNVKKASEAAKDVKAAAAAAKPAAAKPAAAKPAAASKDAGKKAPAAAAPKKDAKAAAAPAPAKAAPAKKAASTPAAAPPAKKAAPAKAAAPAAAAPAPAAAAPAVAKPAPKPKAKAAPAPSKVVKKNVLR

By UniProt entry, the sequences of proteins in these tests, tags left out. Residues count along the entry.
UniProt P50887, 181-299: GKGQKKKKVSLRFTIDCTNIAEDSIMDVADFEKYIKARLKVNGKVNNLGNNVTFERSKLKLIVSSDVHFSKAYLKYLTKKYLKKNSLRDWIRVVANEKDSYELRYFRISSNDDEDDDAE

[2] = biological target: RpL22/L22 polypeptide (Drosophila melanogaster) (UniProt P50887); conditions: 0.6 ug protein, 2 ng DNA; EMSA with 2 ng labeled TERM3; pH and temperature not given (as previously described, ref 31); recombinant protein; protein details: pET200 tag (His6); label: radiolabeled
[3] = biological target: RpL22 (His6-RpL22) (Drosophila melanogaster) (UniProt P50887); conditions: self-competition: complex lost with 5x unlabeled TERM3; EMSA with 2 ng labeled TERM3; pH and temperature not given (as previously described, ref 31); recombinant protein; residues 1-299; protein details: N-terminal His6 (pET200); label: radiolabeled

Question: Which results are given for “AATTCATCAATCGCTGATATCAATCGCTGATATCAATCGCTGATG / CTAGAATCAGCGATTGATATCAGCGATTGATATCAGCGATTGATG [TERM3]”?
Answer: binding result [1]: binds; binding result [2]: no binding; binding result [3]: binds

Reference: PMC8872304
